Measured values as given in PubChem BioAssay AID1347076 (National Center for Advancing Translational Sciences (NCATS), 2019).
About 13,000 (3.2%) of roughly 400,000 compounds were called active. Inconclusive means that the source gave no clear call. Such entries were picked first, then a sample of the others. The call rests on the fitted dose curve; in most records, active means well fitted cell-killing curve with a large enough effect; inconclusive means small, poorly fitted or top-dose-only effect, or effect the other way; inactive means flat fitted curve, though single readings scatter. Where the call is inconclusive, the potency comes from a doubtful curve fit.

Assay: qHTS assay for MDR1-selective chemotherapeutics: Primary screen using the drug-selected MDR subline cells KB-V1; further: nearly all actives have a fitted effect of over 60% in size
Conditions: KB-V1 MDR cells viability, CellTiter-Glo, 72 h; activity change, negative = cytotoxicity: at 46.1 µM (top of the series)
Method in brief: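 Following 72 h at 37 degrees C with compound, KB-V1 cell viability was read by CellTiter-Glo luminescence, medium being phenol-red-free DMEM plus 10% FBS; concentration-response parameters came from normalized, curve-fitted qHTS data.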
On the % scale 0 is the no-effect control and ±100 the full control effect; potency means the concentration at half of the fitted maximal effect.

**Q.** For `CC(C)CN1C(=O)C(=O)N(CC(=O)N2CCC(Cc3ccccc3)CC2)C1=O`, which Potency is on record?
**A.** The Potency was inconclusive: 14.6 µM [cytotoxic, single point].

**Q.** With `CCOc1ccc2c(c1)ncn2Cc1ccccc1` as the compound, how does the Potency read?
**A.** Its Potency is inconclusive: 32.6 µM [cytotoxic, partial curve, poor fit].

**Q.** With `NC(=S)NN=Cc1c[nH]c2nccnc12` as the compound, how does the Potency read?
**A.** Its Potency is “inactive”.

**Q.** Which Potency does the source give for `COc1ccc(S(=O)(=O)N(C)CC(=O)N2CCN(c3ccccc3)CC2)cc1` here?
**A.** Its Potency is inconclusive: 14.6 µM [cytotoxic, partial curve].

**Q.** Which Potency does the source give for `O=[N+]([O-])c1cccc(/C=N\N=C2c3ccccc3-c3ccccc32)c1O` here?
**A.** Its Potency is active: 18.4 µM.

**Q.** With `C=CCn1c(=NC(=O)c2ccc(S(=O)(=O)N3CCc4ccccc4C3)cc2)sc2cc(S(N)(=O)=O)ccc21` as the compound, how does the Potency read?
**A.** The Potency was inconclusive: 29.1 µM [rising, single point].

**Q.** For `Cc1ccc(S(=O)(=O)N2C3CCCCC3O[C@H]2CC(=O)c2cccs2)cc1` (stereo partly drawn), which Potency is on record?
**A.** The Potency was inconclusive: 20.6 µM [cytotoxic, partial curve].

**Q.** Which Potency does the source give for `CCS(=O)(=O)N1CCCC(C(=O)N2CCc3ccccc3C2)C1` (stereo not drawn) here?
**A.** Its Potency is inconclusive: 23.1 µM [cytotoxic, partial curve, poor fit].

**Q.** With `CCOc1ccc(CCN2C(=S)N([C@@H](Cc3ccccc3)CN3CCC[C@@H]3CN3C(=S)NC[C@@H]3CC(C)C)C[C@@H]2Cc2ccccc2)cc1` as the compound, how does the Potency read?
**A.** Its Potency is inconclusive: 7.31 µM [cytotoxic, partial curve, poor fit].

**Q.** With `O=C(CN1C=NS(=O)(=O)c2ccccc21)Nc1ccc(F)cc1` as the compound, how does the Potency read?
**A.** Its Potency is inconclusive: 29.1 µM [rising, single point].

**Q.** Which Potency does the source give for `COc1c(C)cc(C(=O)C2CCCN(C(=O)C3=C(C)OCCO3)C2)cc1C` (stereo not drawn) here?
**A.** The Potency was active: 20.6 µM.

**Q.** Which Potency does the source give for `CCCC1=Nc2cc(C(=O)N3CCCC3)ccc2Sc2ccc(C)cc21` here?
**A.** The Potency was inconclusive: 9.2 µM [cytotoxic, partial curve, poor fit].

**Q.** With `c1ccc(C2C3=C(Nc4ncnn42)c2ccccc2CCC3)cc1` (stereo not drawn) as the compound, how does the Potency read?
**A.** Its Potency is active: 18.4 µM.

**Q.** With `CCOc1ccccc1NC(=O)C(Cc1ccccc1)NS(=O)(=O)c1ccc2c(c1)oc(=O)n2C` (stereo not drawn) as the compound, how does the Potency read?
**A.** The Potency was “inactive”.

**Q.** Which Potency does the source give for `CCOC(=O)N1CCN(S(=O)(=O)c2ccc(C(=O)Nc3sc4c(c3C(N)=O)CCN(CC)C4)cc2)CC1` here?
**A.** Its Potency is “inactive”.

**Q.** With `Cc1cc(C(=O)NC(C)Cc2ccccc2)cc(C)c1[N+](=O)[O-]` (stereo not drawn) as the compound, how does the Potency read?
**A.** Its Potency is inconclusive: 14.6 µM [cytotoxic, single point].

**Q.** Which activity change, negative = cytotoxicity does the source give for `O=C(CN1CCCCC1)Nc1c2c(nc3ccccc13)N(c1ccccc1)CC2` here?
**A.** Its activity change, negative = cytotoxicity is inconclusive: -32.3% [cytotoxic].

**Q.** With `Cc1cccc(NC(=O)CSc2nc(COc3ccccc3)nc3ccccc23)c1C` as the compound, how does the Potency read?
**A.** Its Potency is inconclusive: 8.2 µM [cytotoxic, partial curve].

**Q.** For `O=C(Nc1cc(S(=O)(=O)N2CCCCC2)ccc1O)c1ccccc1NS(=O)(=O)c1ccc(F)cc1`, which Potency is on record?
**A.** The Potency was “inactive”.

**Q.** With `Cc1ccccc1CN1[C@H](C)[C@H](c2ccccc2)OCCS1(=O)=O` as the compound, how does the Potency read?
**A.** The Potency was inconclusive: 16.4 µM [cytotoxic, single point].

**Q.** With `Cc1ccccc1N1C(=O)CC1(C#N)c1ccc(OCc2ccccc2)cc1` (stereo not drawn) as the compound, how does the Potency read?
**A.** The Potency was inconclusive: 29.1 µM [cytotoxic, single point].

**Q.** For `Cc1cccc(Cn2c(O)c(N=NC(=S)Nc3ccccc3F)c3ccccc32)c1`, which Potency is on record?
**A.** The Potency was inconclusive: 8.2 µM [cytotoxic, partial curve].

**Q.** For `N#Cc1cnn2c1nc(N1CCCCC1)c1ccccc12`, which Potency is on record?
**A.** Its Potency is active: 11.6 µM.

**Q.** For `COCc1cc(CN2CCCC2)c(O)c2ncccc12`, which Potency is on record?
**A.** The Potency was inconclusive: 29.1 µM [cytotoxic, single point].

**Q.** Which Potency does the source give for `COc1ccc(CN2C(=O)C(Cc3ccccc3)Nc3ncnc(N4CCOCC4)c32)cc1` (stereo not drawn) here?
**A.** Its Potency is inconclusive: 23.1 µM [cytotoxic, single point].

**Q.** Which Potency does the source give for `COc1ccc(-c2cc(C(=O)OCC(=O)c3ccc(C)cc3)c3cccc(Cl)c3n2)cc1` here?
**A.** The Potency was “inactive”.

**Q.** With `CCc1ccccc1Nc1nc(N)nc(COC(=O)c2c(C)noc2C)n1` as the compound, how does the Potency read?
**A.** The Potency was inconclusive: 29.1 µM [cytotoxic, single point].

**Q.** With `CC1(C)CSC(=NCc2ccccc2)N1C(=O)c1cccc([N+](=O)[O-])c1` as the compound, how does the Potency read?
**A.** The Potency was inconclusive: 18.4 µM [cytotoxic, partial curve, poor fit].

**Q.** With `O=S(=O)(c1ccc2c(c1)CCCN2)N1CCCC1` as the compound, how does the Potency read?
**A.** Its Potency is inconclusive: 20.6 µM [rising, single point].

**Q.** For `CCOC(=O)Nc1ccc(=O)n(Cc2c(Cl)cccc2Cl)c1`, which Potency is on record?
**A.** Its Potency is inconclusive: 35.5 µM [cytotoxic, partial curve, poor fit].

**Q.** For `C=C(C)CSc1nc(N)c2c(C)c(C)sc2n1`, which Potency is on record?
**A.** The Potency was “inactive”.

**Q.** Which Potency does the source give for `CCOC(=O)c1ccc2nc(C(F)(F)F)[nH]c(=O)c2c1` here?
**A.** The Potency was “inactive”.

**Q.** For `CN1CCN(C(=O)CCN2C(=O)/C(=C/c3ccc(F)cc3)SC2=S)CC1`, which Potency is on record?
**A.** Its Potency is “inactive”.

**Q.** With `COc1ccc(NC(=O)Cn2nc(C)c3ccccc3c2=O)cc1` as the compound, how does the Potency read?
**A.** Its Potency is “inactive”.

**Q.** Which Potency does the source give for `O=C(COc1c(F)c(F)cc(F)c1F)NNC(=O)CC1CCS(=O)(=O)C1` (stereo not drawn) here?
**A.** The Potency was inconclusive: 25.9 µM [rising, single point].

**Q.** For `CCOCCn1ccc2c(OCC(=O)Nc3ccccc3OC)cccc2c1=O`, which Potency is on record?
**A.** The Potency was inconclusive: 9.2 µM [cytotoxic, partial curve, poor fit].

**Q.** Which Potency does the source give for `NC1C2CN(c3nc4c(cc3F)c(=O)c(C(=O)O)cn4-c3ccc(F)cc3F)CC12` (stereo not drawn) here?
**A.** The Potency was inconclusive: 13 µM [cytotoxic, partial curve, poor fit].

**Q.** Which Potency does the source give for `COc1ccc(-c2nc(=N)sn2-c2ccccc2)cc1` here?
**A.** Its Potency is inconclusive: 23.1 µM [cytotoxic, single point].

**Q.** For `c1ccc(-c2c[n+]3c(n2-c2ccccc2)SCC3)cc1`, which Potency is on record?
**A.** The Potency was inconclusive: 6.51 µM [rising, full curve].

**Q.** For `O=C(Nc1ccncc1)c1ccc2c(c1)C(=O)N(C1CCCCC1)C2=O`, which Potency is on record?
**A.** Its Potency is “inactive”.

**Q.** With `CC(=O)Nc1ccc(S(=O)(=O)NCCOc2ccc(Cl)cc2C)cc1` as the compound, how does the Potency read?
**A.** Its Potency is “inactive”.

**Q.** Which Potency does the source give for `CC(=O)NCCNC(=O)CCCc1nnc2n(C)c(=O)c3sccc3n12` here?
**A.** The Potency was inconclusive: 14.6 µM [rising, single point].

**Q.** For `Cc1cc(N2C(=O)C3C4C=CC(C4)C3C2=O)ccc1NC(=O)c1cccs1` (stereo not drawn), which Potency is on record?
**A.** The Potency was “inactive”.

**Q.** For `O=C(COc1cccc2c1CCN(Cc1ccccc1)C2=O)N1CCCCC1`, which Potency is on record?
**A.** The Potency was inconclusive: 4.61 µM [cytotoxic, full curve].

**Q.** For `COC(=O)C(C(=O)Nc1cc(C)on1)C1CCCCCC1` (stereo not drawn), which Potency is on record?
**A.** The Potency was inconclusive: 16.4 µM [cytotoxic, single point].

**Q.** Which Potency does the source give for `CC(C)CN1C(=O)c2ccc(C(=O)Nc3nccs3)cc2C1=O` here?
**A.** The Potency was “inactive”.

**Q.** For `O=C(NCc1ccc(Cl)cc1)c1cccc(NC(=O)c2ccccc2)c1`, which Potency is on record?
**A.** The Potency was inconclusive: 7.31 µM [cytotoxic, partial curve, poor fit].

**Q.** Which Potency does the source give for `Cc1ccc(NC(=O)Cc2ccc(Cl)c(Cl)c2)cc1S(=O)(=O)N(C)C` here?
**A.** The Potency was active: 2.59 µM.

**Q.** For `O=C(NCCc1ccccc1)[C@@H]1CC=C[C@@H]2CCN(C3CC3)C(=O)[C@@H]21`, which Potency is on record?
**A.** The Potency was “inactive”.

**Q.** For `CCOc1ccc(CCNC(=O)CN2C(=O)COc3ccc(S(=O)(=O)N4CCC(C)CC4)cc32)cc1`, which Potency is on record?
**A.** The Potency was inconclusive: 9.2 µM [cytotoxic, partial curve].

**Q.** With `Cc1ccc(S(=O)(=O)N2CCCC2)cc1C(=O)NCC(C)(C)N1CCOCC1` as the compound, how does the Potency read?
**A.** The Potency was “inactive”.

**Q.** For `CCOC(=O)c1[nH]c(C)c(CCC(=O)OC)c1C`, which Potency is on record?
**A.** Its Potency is inconclusive: 20.6 µM [cytotoxic, single point].

**Q.** With `CCc1nnc(NC(=O)CCC(=O)N2CCN(Cc3ccccc3)CC2)s1` as the compound, how does the Potency read?
**A.** Its Potency is “inactive”.

**Q.** Which Potency does the source give for `O=C(O)C1CCCN1S(=O)(=O)c1ccc(Br)s1` (stereo not drawn) (tested in a mixture with another compound) here?
**A.** The Potency was inconclusive: 20.6 µM [rising, single point].

**Q.** Which Potency does the source give for `Cc1cc(C)cc(Nc2cc(-c3ccccc3)nc(C)n2)c1` here?
**A.** The Potency was inconclusive: 20.6 µM [cytotoxic, single point].

**Q.** With `Cn1c(=O)c2c(nc(NCC3CCCO3)n2Cc2cccc(Br)c2)n(C)c1=O` (stereo not drawn) as the compound, how does the Potency read?
**A.** The Potency was inconclusive: 23.1 µM [cytotoxic, partial curve, poor fit].

**Q.** Which Potency does the source give for `Cc1ccnc2nc(C(=O)OCC(=O)N(CC(C)C)C3CCS(=O)(=O)C3)nn12` (stereo not drawn) here?
**A.** The Potency was inconclusive: 29.1 µM [rising, single point].

**Q.** For `O=C(CN(c1ccc2c(c1)OCCO2)S(=O)(=O)c1ccccc1)Nc1ccc2c(c1)OCO2`, which Potency is on record?
**A.** Its Potency is inconclusive: 23.1 µM [cytotoxic, partial curve].

**Q.** For `CC1=C(C(=O)N2CCOCC2)CC(CC(=O)NCCc2ccccn2)C(=O)N1Cc1ccc(F)cc1` (stereo not drawn), which activity change, negative = cytotoxicity is on record?
**A.** The activity change, negative = cytotoxicity was inconclusive: 20.5%.

**Q.** Which Potency does the source give for `CC(C)CNC(=O)c1ccccc1N(Cc1ccccc1)S(C)(=O)=O` here?
**A.** The Potency was “inactive”.

**Q.** Which Potency does the source give for `Cc1ccc(NC(=O)O/N=C/c2cccc([N+](=O)[O-])c2)cc1` here?
**A.** The Potency was inconclusive: 4.61 µM [rising, full curve, poor fit].

**Q.** Which Potency does the source give for `O=C(CCN1CCCCO1)N1CCCC(Nc2cccc(F)c2)C1` (stereo not drawn) here?
**A.** The Potency was “inactive”.

**Q.** For `COc1ccc(S(=O)(=O)N2CCCCCC2)cc1N(C)S(=O)(=O)c1ccc(C)cc1`, which Potency is on record?
**A.** Its Potency is active: 2.59 µM.

**Q.** Which Potency does the source give for `COc1ccc(C2CC(=O)Oc3c(C(C)C)ccc(C)c32)cc1` (stereo not drawn) here?
**A.** The Potency was inconclusive: 23.1 µM [cytotoxic, single point].

**Q.** Which Potency does the source give for `FC(F)(F)c1ccccc1Cc1c(-c2ccccc2)nc2ccc(Br)cn12` here?
**A.** The Potency was “inactive”.

**Q.** Which Potency does the source give for `CCOC(=O)c1[nH]c2ccc(Br)cc2c1NC(=O)CCN1CCC(C(=O)OCC)CC1` here?
**A.** The Potency was inconclusive: 23.1 µM [cytotoxic, single point].

**Q.** For `Cc1c(F)cccc1NS(=O)(=O)c1ccc(N2CCCC2=O)cc1`, which Potency is on record?
**A.** The Potency was inconclusive: 9.2 µM [rising, partial curve, poor fit].

**Q.** For `O=C(CC1CCCC1)Nc1cccc(Br)c1`, which Potency is on record?
**A.** Its Potency is inconclusive: 29.1 µM [rising, single point].
